No constants are given. Whether binding was seen depends on the method and setting. For some of these results: In cells and extracts the contact can be indirect. Some binding calls cover weakened binding; strength is not graded here. Blank lines part the entries; values can stand above or below the substance they belong to.
How the values were obtained:
[1] = biological target: HA-tagged MGMT, stably expressed in HEK293T cells (UniProt P16455); experiment: co-IP; HEK293T cells stably expressing HA-MGMT transfected with Flag-tagged DUBs, USP7 WT, C223S or truncated mutants; lysis buffer 150 mM NaCl, 50 mM Tris-HCl pH 7.9, 1% Triton X-100, 10% glycerol, 2 mM DTT; anti-Flag M2 or HA-agarose beads at 4 °C overnight; western blotting
[2] = biological target: MGMT, endogenous in T98G cells (human (endogenous in T98G)) (UniProt P16455); experiment: co-IP; endogenous proteins in T98G cells; immunoprecipitation with an anti-MGMT antibody
[3] = biological target: Flag-tagged MGMT (O6-methylguanine-DNA-methyltransferase), expressed in T98G cells (UniProt P16455); experiment: co-IP; T98G cells transduced with Flag-tagged GFP or Flag-MGMT, treated or not with 300 µM TMZ for 40 min; immunoprecipitation and western blotting
GST-MGMT = GST-MGMT (UniProt P16455); experiment: pull-down; in vitro reciprocal GST pulldown using GST-MGMT; both purified
[4] = biological target: HA-tagged MGMT, stably expressed in HEK293T cells (UniProt P16455); experiment: co-IP; reciprocal co-IP: HA immunoprecipitation after expression of the indicated vectors; western blotting

Amino acid sequences for entries named in this document (tags omitted). A change or cut given only in a name is not applied to a line headed by its entry.
UniProt P16455: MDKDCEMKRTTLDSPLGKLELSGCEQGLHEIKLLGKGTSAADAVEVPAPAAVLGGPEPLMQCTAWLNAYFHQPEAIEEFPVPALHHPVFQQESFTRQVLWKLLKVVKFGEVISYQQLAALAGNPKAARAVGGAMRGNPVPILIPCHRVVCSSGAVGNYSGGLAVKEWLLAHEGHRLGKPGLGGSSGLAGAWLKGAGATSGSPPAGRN
UniProt Q93009: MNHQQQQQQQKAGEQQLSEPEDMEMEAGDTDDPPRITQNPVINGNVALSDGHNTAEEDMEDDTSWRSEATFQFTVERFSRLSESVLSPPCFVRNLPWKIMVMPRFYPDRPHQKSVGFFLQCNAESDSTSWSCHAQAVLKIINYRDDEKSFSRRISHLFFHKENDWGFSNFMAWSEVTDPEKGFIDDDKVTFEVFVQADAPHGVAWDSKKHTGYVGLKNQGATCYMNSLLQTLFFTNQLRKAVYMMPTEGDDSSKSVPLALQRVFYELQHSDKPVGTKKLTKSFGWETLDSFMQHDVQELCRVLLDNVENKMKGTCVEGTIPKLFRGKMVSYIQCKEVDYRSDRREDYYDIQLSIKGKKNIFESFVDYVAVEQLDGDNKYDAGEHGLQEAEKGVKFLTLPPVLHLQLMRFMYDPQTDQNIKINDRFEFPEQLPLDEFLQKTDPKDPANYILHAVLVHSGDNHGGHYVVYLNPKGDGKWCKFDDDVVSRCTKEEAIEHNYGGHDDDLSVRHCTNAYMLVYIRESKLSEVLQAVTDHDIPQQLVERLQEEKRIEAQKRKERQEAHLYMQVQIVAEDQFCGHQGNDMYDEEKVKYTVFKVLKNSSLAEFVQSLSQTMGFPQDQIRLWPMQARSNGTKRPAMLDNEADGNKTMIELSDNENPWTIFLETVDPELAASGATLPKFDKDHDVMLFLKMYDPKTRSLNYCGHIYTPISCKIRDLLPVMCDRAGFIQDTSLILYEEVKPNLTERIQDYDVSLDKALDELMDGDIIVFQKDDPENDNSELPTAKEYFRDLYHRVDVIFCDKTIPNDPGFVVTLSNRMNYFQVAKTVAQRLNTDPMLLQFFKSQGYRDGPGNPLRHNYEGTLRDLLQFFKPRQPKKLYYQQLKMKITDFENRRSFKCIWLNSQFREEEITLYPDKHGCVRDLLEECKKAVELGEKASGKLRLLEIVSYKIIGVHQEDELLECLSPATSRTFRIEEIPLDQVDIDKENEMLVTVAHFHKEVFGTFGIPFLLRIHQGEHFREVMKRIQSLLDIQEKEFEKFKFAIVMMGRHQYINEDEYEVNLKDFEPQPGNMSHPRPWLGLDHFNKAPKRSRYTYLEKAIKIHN
UniProt Q93008: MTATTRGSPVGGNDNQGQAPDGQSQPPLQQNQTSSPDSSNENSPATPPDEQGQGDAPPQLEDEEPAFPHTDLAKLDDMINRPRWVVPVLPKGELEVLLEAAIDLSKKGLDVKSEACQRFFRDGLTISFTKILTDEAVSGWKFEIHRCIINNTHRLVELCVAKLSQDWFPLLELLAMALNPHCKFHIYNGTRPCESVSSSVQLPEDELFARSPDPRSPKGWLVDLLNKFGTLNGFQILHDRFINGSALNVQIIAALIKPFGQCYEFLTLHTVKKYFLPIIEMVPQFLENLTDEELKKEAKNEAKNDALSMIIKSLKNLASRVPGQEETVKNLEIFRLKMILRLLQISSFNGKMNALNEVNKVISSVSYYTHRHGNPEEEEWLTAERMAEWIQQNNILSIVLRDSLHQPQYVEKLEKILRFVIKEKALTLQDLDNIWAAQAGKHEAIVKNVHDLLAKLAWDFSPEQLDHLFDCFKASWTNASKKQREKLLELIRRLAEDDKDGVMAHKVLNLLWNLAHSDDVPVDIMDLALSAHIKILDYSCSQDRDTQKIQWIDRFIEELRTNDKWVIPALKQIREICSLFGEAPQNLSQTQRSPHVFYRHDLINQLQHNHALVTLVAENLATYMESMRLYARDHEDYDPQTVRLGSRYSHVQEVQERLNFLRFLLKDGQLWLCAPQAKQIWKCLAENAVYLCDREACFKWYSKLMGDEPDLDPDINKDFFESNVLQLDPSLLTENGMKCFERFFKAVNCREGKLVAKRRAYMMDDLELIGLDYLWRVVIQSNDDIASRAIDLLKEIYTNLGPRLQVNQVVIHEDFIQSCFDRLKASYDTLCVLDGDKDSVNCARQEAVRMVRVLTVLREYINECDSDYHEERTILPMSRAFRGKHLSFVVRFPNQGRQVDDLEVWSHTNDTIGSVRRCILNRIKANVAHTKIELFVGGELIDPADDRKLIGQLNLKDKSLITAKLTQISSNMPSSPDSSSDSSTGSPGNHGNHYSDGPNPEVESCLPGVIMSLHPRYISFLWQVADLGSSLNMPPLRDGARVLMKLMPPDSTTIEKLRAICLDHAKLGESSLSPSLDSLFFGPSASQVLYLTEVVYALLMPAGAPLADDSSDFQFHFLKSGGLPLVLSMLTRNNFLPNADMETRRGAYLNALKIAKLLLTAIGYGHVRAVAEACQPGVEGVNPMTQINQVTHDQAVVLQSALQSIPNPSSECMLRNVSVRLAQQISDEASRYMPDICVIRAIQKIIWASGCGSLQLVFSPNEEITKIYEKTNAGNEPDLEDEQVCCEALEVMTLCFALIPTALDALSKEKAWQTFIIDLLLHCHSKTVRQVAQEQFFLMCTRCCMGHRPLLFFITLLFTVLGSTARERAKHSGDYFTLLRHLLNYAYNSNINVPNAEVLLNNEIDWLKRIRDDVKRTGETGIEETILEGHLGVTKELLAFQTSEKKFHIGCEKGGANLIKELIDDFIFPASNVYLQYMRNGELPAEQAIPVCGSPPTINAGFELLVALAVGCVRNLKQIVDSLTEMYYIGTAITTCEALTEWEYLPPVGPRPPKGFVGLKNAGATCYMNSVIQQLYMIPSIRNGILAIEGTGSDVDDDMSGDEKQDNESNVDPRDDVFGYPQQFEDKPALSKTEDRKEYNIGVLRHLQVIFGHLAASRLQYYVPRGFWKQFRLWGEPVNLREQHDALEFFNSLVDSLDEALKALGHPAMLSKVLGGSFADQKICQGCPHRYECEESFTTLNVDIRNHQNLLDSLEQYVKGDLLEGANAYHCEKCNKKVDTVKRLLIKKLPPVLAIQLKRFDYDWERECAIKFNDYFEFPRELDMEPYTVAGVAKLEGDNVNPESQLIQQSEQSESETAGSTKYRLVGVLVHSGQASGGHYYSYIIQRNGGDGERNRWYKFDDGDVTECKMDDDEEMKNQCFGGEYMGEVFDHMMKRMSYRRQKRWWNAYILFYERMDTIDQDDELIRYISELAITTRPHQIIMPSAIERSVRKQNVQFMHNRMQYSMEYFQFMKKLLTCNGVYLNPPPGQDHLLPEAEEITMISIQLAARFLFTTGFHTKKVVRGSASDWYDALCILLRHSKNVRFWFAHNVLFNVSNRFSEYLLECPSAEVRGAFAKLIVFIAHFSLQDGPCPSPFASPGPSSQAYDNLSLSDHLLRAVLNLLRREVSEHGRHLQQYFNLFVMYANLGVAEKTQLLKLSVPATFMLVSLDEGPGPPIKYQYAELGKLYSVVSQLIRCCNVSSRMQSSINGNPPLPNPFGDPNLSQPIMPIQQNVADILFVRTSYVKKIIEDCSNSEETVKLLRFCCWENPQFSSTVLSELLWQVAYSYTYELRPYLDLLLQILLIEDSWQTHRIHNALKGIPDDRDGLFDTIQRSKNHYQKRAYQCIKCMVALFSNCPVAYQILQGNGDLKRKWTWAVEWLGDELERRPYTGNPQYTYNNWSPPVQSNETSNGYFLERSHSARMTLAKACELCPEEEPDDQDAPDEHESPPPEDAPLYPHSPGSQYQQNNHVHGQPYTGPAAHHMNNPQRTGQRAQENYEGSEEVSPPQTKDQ

Substance: ubiquitin-specific protease 7 (USP7), endogenous in T98G cells (from UniProt Q93009 1-1102) (enzyme)
binding [2]: binds
binding [3]: binds

Substance: USP7 used in the GST pulldown assay with GST-MGMT (from UniProt Q93009 1-1102) (enzyme)
binding (GST-MGMT): binds

Substance: Flag-tagged USP7 wild type, transfected in HEK293T cells (from UniProt Q93009 1-1102) (enzyme)
binding [4]: binds
binding [1]: binds

Further lines, results first:

binding [1]: no binding
Substance: Flag-tagged USP9X, transfected in HEK293T cells (from UniProt Q93008 1-2554) (enzyme)

binding [1]: binds
Substance: Flag-tagged USP7 C223S (catalytically inactive mutant), transfected in HEK293T cells (from UniProt Q93009 1-1102) (enzyme)

From PMC12368267
